In brackets after ≈: the same amount, converted by molar mass.
Test system: Trypanosoma cruzi Tulahuen C2C4 strain
Test: Trypanosoma cruzi whole cell assay
Assay type: cell-based
Conditions: L6
Procedure: The Trypanosoma cruzi Tulahuen C2C4 strain, containing the -galactosidase (Lac Z) gene, is used. The plasmid construct by Dr. S. Reed was obtained from Dr. F. Buckner, Seattle, as epimastigotes in LIT medium.
The infective amastigote and trypomastigote stages are cultivated in L-6 cells (rat skeletal myoblast cell line) in RPMI 1640 supplemented with 2 mM L-glutamine and 10% heat-activated foetal bovine serum in 12.5 cm^2 tissue culture flasks. Amastigotes develop intracellularly, differentiate into trypomastigotes and leave the host cell. These trypomastigotes infect new L-6 cells and are the stages used to initiate an infection in the assay. All cultures and assays are conducted at 37° C. under an atmosphere of 5% CO2 in air.
The stocks are kept at −20° C. For the assays, the compound is further diluted to the appropriate concentration using complete medium.
Assays are performed in sterile 96-well microtiter plates, each well containing 100 μl medium with 2×10^3 L-6 cells. […]
Then the substrate CPRG/Nonidet (50 l) is added to all wells. A colour reaction will become visible within 2-6 hours and can be read photometrically at 540 nm. Data are transferred into a graphic programme (e.g. EXCEL), sigmoidal inhibition curves determined and IC50 values calculated.

For O=C(Cn1ccnc1[N+](=O)[O-])NCc1ccccc1 [Benznidazole], the IC50 was 0.34 mg/L (≈ 1.31 µM).

Reference: US7601702B2, “Dutpase Inhibitors” (Medivir AB, priority 2004, dated 2009)
